# Values joined by “and” are separate entries in the source; they are usually repeats but may differ in a detail not shown here. Equal entries are not always repeated. Structures can show the parent of a compound that is named as a salt. This is one part of the list. Repeats are few or missing, and single values can be far off.
# Test system: Neuro-2a
# Assay: neurite formation score, plate-normalized to DMSO control mean 5.04 (score (0-8 scale)); higher = more or longer neurites
# Settings: 10 µM
row,Structure (SMILES),neurite formation score
1,CCn1c(N)c(C(=O)NC)c(=O)c2ccc(C#CC(C)(O)COC)nc21 (centres undefined),5.19
2,CC(C)(C)n1nc(-c2ccc(Cl)cc2)c2c(N)ncnc21,3.85
3,Cc1nc(Nc2ncc(C(=O)Nc3c(C)cccc3Cl)s2)cc(N2CCN(CCO)CC2)n1,1.54
4,Cc1ccc2nc(NCCN)c3ncc(C)n3c2c1,4.42 and 3.76
5,COc1cc(N2CCOCC2)ccc1Nc1ncc(F)c(Nc2ccccc2NS(C)(=O)=O)n1,5.19
6,Nc1nc(Nc2ccc3c(c2)CCC(N2CCCC2)CC3)nn1-c1cc2c(nn1)-c1ccccc1CCC2 (centres undefined),3.52
7,COc1ccc2c(OCc3nnc4ccc(-c5ccccc5)nn34)ccnc2c1,4.86
8,C[C@@H]1CCNC(=O)c2cc3ccc(C(=O)Nc4nc5ccccc5n4CCCN(C)C)cc3n21,5.09
9,CCOc1cc(N2CCC(O)CC2)ccc1Nc1ncc2c(n1)N(C)c1ccccc1C(=O)N2C,4.08
10,"CCCCCCCCCCCCCC(=O)OC[C@H](CO)OC(=O)CCCCCCCCCCCCC [1,2-Dimyristoyl-sn-glycerol]",4.86
11,Cc1csc(-c2nnc(Nc3ccc(Oc4ncccc4-c4ccnc(N)n4)cc3)c3ccccc23)c1,1.41
12,C=CC(=O)N1CCC[C@@H](n2nc(-c3ccc(Oc4ccccc4)cc3)c3c(N)ncnc32)C1,1.21
13,Cn1cc(-c2ccc3c(c2)CCN3C(=O)Cc2cccc(C(F)(F)F)c2)c2c(N)ncnc21,5.41
14,CNC(=O)c1cc(Oc2ccc(NC(=O)Nc3ccc(Cl)c(C(F)(F)F)c3)cc2)ccn1 [Sorafenib Tosylate],1.85
15,CN1CC[C@H](c2c(O)cc(O)c3c(=O)cc(-c4ccccc4Cl)oc23)[C@H](O)C1 [Flavopiridol hydrochloride],2.76
16,Cc1cc(CN2CCN(c3c(Br)cnc4nc(-c5ccc(N6CCN(C)CC6)cc5)[nH]c34)CC2)no1,4.42
17,COc1cc(Nc2ncc3c(n2)-c2ccc(Cl)cc2C(c2c(F)cccc2OC)=NC3)ccc1C(=O)O [MLN8237 (Alisertib)],1.08
18,CC(C)[C@H](CO)Nc1nc(Nc2cccc(Cl)c2)c2ncn(C(C)C)c2n1 [Purvalanol A],0.855
19,Cc1cc(C(C)Nc2ccccc2)c2nc(N3CCOCC3)cc(=O)n2c1 (centres undefined),2.09
20,O=c1oc2c(O)c(O)cc3c(=O)oc4c(O)c(O)cc1c4c23 [Ellagic acid],2.76

row,Structure (SMILES),neurite formation score
1,COc1ccc2c(c1)c(C1=C(c3c[nH]c4ccccc34)C(=O)NC1=O)cn2CCCN(C)C,5.52
2,N#Cc1c(O)c2c(-c3ccc(-c4ccccc4O)cc3)csc2[nH]c1=O,4.08
3,Cc1ncc(CCCN(C)C)cc1Nc1ncc2c(n1)-c1ccc(C(F)(F)F)cc1NC(=S)C2,5.43
4,c1cc(-c2cnn3cc(-c4ccc(OCCN5CCCCC5)cc4)cnc23)ccn1 [Dorsomorphin 2HCl],2.43
5,O=C(NCCCNc1nc(Nc2cccc(NC(=O)N3CCCC3)c2)ncc1I)c1cccs1,6.19
6,"Cc1[nH]c(/C=C2\C(=O)Nc3ccccc32)c(C)c1CCC(=O)O [TSU-68 (SU6668,Orantinib)]",3.19
7,FC(F)c1nc2ccccc2n1-c1nc(N2CCOCC2)nc(N2CCOCC2)n1,4.19
8,N=C(N)NCCC(=O)O [3-Guanidinopropionic Acid],5.19
9,CCS(=O)(=O)Nc1ccc2[nH]c(O)c(C(=Nc3ccc(CN4CCCCC4)cc3)c3ccccc3)c2c1 [Hesperadin],1.41
10,CC(C)n1nc(-c2ccc3oc(N)nc3c2)c2c(N)ncnc21,4.09
11,Cc1ccc(NC(=O)c2ccc(CN3CCN(C)CC3)cc2)cc1Nc1nccc(-c2cccnc2)n1 [Imatinib Mesylate (STI571)],4.21
12,O=C(Nc1ccc(CN2CCOCC2)cc1)c1ccc(-c2cccc(Cl)c2)o1,4.19
13,CCN(CC)CCNC(=O)c1c(C)[nH]c(/C=C2\C(=O)Nc3ccc(F)cc32)c1C [Sunitinib],2.09
14,O=C1Nc2ccc(I)cc2/C1=C/c1cc(Br)c(O)c(Br)c1,0.76
15,Cn1cc(-c2ccc3nnc(C(F)(F)c4ccc5ncccc5c4)n3n2)cn1,4.08
16,Clc1ccc(C2(c3ccc(-c4cn[nH]c4)cc3)CCNCC2)cc1,4.85
17,COc1cc(Nc2nc3ccccc3nc2NS(=O)(=O)c2ccc(NC(=O)c3ccc(C)c(OC)c3)cc2)cc(OC)c1,3.19
18,COc1cc2ncc(-c3ccccc3)nc2cc1OC [Tyrphostin AG 1296],4.88
19,COc1cc(C(=O)N2CCC(N3CCN(C)CC3)CC2)ccc1Nc1ncc2c(n1)N(C)c1ccccc1C(=O)N2C,4.74

# As entered above:
# neurite formation score, CCn1c(N)c(C(=O)NC)c(=O)c2ccc(C#CC(C)(O)COC)nc21 (centres undefined) is entered as 5.19
# neurite formation score, N=C(N)NCCC(=O)O [3-Guanidinopropionic Acid] is entered as 5.19
# neurite formation score, C[C@@H]1CCNC(=O)c2cc3ccc(C(=O)Nc4nc5ccccc5n4CCCN(C)C)cc3n21 is entered as 5.09

# From the supplement of paper PMC8047044
